Results are given in words; binding and its absence hold for the method and conditions named. In cells and extracts the contact can be indirect. These calls come from enrichment with a bait or labelling near it, and not all partners need be listed.
Target: Molecule interacting with CasL-like protein 2 (MICALL2), endogenous (human (endogenous in HCT8)) (UniProt Q8IY33)
Experiment: affinity purification with mass spectrometry; CRC cell protein extracts incubated with MICALL2 antibody and protein A/G agarose beads; IgG as control; bands specific to MICALL2 excised from the silver-stained gel, LC-MS/MS

Protein sequences, listed by entry. Tags and fused reporters are not part of them.
UniProt Q8IY33: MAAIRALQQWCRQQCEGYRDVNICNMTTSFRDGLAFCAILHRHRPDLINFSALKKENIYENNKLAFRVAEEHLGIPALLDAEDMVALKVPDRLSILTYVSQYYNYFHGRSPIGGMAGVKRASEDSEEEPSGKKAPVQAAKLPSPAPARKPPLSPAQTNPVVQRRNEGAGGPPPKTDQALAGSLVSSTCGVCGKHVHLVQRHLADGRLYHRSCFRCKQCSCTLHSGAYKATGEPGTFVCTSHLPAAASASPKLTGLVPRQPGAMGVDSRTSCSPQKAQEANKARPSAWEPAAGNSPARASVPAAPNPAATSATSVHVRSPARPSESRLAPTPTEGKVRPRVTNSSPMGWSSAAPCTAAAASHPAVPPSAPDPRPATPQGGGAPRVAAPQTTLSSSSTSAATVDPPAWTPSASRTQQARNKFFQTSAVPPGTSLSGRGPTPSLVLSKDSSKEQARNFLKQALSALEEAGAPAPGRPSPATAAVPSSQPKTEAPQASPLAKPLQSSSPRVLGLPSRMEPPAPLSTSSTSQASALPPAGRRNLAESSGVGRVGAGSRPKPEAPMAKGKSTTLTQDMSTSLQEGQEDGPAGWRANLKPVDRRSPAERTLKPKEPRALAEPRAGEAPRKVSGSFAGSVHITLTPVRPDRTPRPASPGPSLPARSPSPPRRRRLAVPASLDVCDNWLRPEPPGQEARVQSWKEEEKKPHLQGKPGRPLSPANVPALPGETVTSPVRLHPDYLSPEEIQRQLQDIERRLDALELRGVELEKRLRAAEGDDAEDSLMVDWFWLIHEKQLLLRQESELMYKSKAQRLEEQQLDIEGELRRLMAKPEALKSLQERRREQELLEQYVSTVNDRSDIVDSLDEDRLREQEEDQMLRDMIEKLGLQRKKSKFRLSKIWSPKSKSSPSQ
UniProt P19474: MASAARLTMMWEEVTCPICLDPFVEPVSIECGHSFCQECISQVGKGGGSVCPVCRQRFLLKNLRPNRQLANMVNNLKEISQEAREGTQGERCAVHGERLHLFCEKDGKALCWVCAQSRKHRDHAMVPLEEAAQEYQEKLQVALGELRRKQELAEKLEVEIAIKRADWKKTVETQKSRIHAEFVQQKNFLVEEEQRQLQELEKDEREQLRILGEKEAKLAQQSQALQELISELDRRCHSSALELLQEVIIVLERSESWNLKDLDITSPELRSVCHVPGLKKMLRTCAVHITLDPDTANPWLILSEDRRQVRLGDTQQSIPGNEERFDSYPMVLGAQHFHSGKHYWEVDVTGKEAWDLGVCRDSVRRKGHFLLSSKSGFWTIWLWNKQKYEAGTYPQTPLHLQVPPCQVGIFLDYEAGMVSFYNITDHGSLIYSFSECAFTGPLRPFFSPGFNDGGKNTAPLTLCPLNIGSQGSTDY

Substance: Tripartite motif-containing protein 21 (TRIM21), endogenous (from UniProt P19474 1-475)
- binding: binds

Reference: publication PMC9615392
